This is one part of the list. Shown are side measurements of this screen, not its main read-out; they come without a call. Most of these compounds were active or inconclusive in the main read-out, so they are no random draw. Words in brackets tell the shape of the fitted curve; partial curves, single points and poor fits give uncertain potencies.
Experiment: qHTS Assay for Modulators of Lamin A Splicing
Settings: HeLa LMNA splicing GFP/RFP minigene ratio, 48 h
In short: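 S3 HeLa cells stably expressing lamin A-EGFP splicing minigene plus DsRed2, 600 cells/well, 48 h compound exposure at 37C. Laser-scanning cytometry; analysed as GFP (500-530 nm)/RFP (575-640 nm) total intensity ratio; 0.5% DMSO vehicle.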

[1] = measured here: GFP splicing reporter channel
[2] = measured here: RFP viability control channel

Question: For `CCOC(=O)C1C(=O)C=C(c2ccc(C)cc2)CC1c1ccccc1` (stereo unspecified), which AC50 [1] is on record?
Answer: Its AC50 is 3.55 µM [falling, partial curve].

Question: Which AC50 [1] does the source give for `COc1ccc(-n2ccnc2)cc1` here?
Answer: Its AC50 is 12.6 µM [rising, partial curve, poor fit].

Question: For `C=CCn1c(=NC(=O)c2ccc(S(=O)(=O)N3CCCc4ccccc43)cc2)sc2cc(S(N)(=O)=O)ccc21`, which AC50 [2] is on record?
Answer: Its AC50 is 2.82 µM [falling, full curve, poor fit].

Question: For `S=C(Nc1ccccc1)Nc1nccs1`, which AC50 [1] is on record?
Answer: The AC50 was 4.47 µM [falling, full curve].

Question: And the AC50 [2]?
Answer: Its AC50 is 3.55 µM [falling, full curve].

Question: For `CCOc1ccc(C(=O)Nc2ccc(C(=O)OCc3cc(=O)n4ccsc4n3)cc2)cc1`, which AC50 [2] is on record?
Answer: Its AC50 is 0.0891 µM [falling, full curve, poor fit].

Question: With `CCOC(=O)c1sc(C)c2c1NC(c1ccc(N(C)C)cc1)NC2=O` (stereo unspecified) as the compound, how does the AC50 [1] read?
Answer: The AC50 was 6.31 µM [rising, partial curve].

Question: What about the AC50 [2] of the same compound?
Answer: Its AC50 is 14.1 µM [rising, partial curve].

Question: For `COc1ccc(S(=O)(=O)NCC2CCC(C(=O)NCc3ccco3)CC2)cc1` (stereo unspecified), which AC50 [1] is on record?
Answer: Its AC50 is 35.5 µM [falling, single point].

Question: For `CCc1c(C)c(C#N)c2nc3ccccc3n2c1Cl`, which AC50 [2] is on record?
Answer: The AC50 was 15.8 µM [rising, single point].

Question: For `Cc1ccc(-c2nn3c(C)nnc3c3ccccc23)cc1S(=O)(=O)N(C)CCO`, which AC50 [2] is on record?
Answer: Its AC50 is 12.6 µM [rising, partial curve].

Question: With `COc1ccccc1CNc1nc(-c2cccnc2)nc2ccccc12` as the compound, how does the AC50 [1] read?
Answer: Its AC50 is 22.4 µM [falling, single point].

Question: What about the AC50 [2] of the same compound?
Answer: Its AC50 is 31.6 µM [falling, single point].

Question: What does the source list for `CCc1ccc(C(=O)COC(=O)c2cc([N+](=O)[O-])ccc2NCCO)cc1`?
Answer: AC50 [1]: 15.8 µM [rising, single point]; AC50 [2]: 31.6 µM [rising, single point]

Question: For `CN1CSC2=C(C#N)C(c3cccc(OCc4ccccc4)c3)CC(=O)N2C1` (stereo unspecified), which AC50 [2] is on record?
Answer: The AC50 was 31.6 µM [rising, single point].

Question: Which AC50 [2] does the source give for `CN1C(=O)c2c(sc3c2CC(C)(C)SC3)N2CCN=C12` here?
Answer: The AC50 was 14.1 µM [rising, single point].

Question: Which AC50 [1] does the source give for `COc1cccc(N2CCN(C(=O)c3cc4c(=O)n(Cc5cccs5)ccc4nc3C)CC2)c1` here?
Answer: The AC50 was 0.02 µM [falling, full curve, poor fit].

Question: Which AC50 [1] does the source give for `CC(C)NC(=S)N/N=C1\CCCCC1C1CCCCC1` (stereo unspecified) here?
Answer: The AC50 was 11.2 µM [rising, single point].

Question: What about the AC50 [2] of the same compound?
Answer: The AC50 was 15.8 µM [rising, single point].

Question: Which AC50 [1] does the source give for `CCN(CC)CCn1c2c(c(SCC(=O)Nc3cccc(C(F)(F)F)c3)nc1=O)CCC2` here?
Answer: The AC50 was 0.794 µM [falling, full curve, poor fit].

Question: For `Cc1cccc(CNC(=O)Cc2ccc(NC(=O)N3CCCCc4ccccc43)cc2)c1`, which AC50 [2] is on record?
Answer: Its AC50 is 0.112 µM [falling, full curve, poor fit].

Question: For `CCOC(=O)c1[nH]c(C)c(CCC(=O)NC(C)c2ccccc2)c1C` (stereo unspecified), which AC50 [1] is on record?
Answer: Its AC50 is 0.794 µM [rising, full curve, poor fit].

Question: Which results are given for `Cc1ccc(Cl)c(NC(=O)CCl)c1Cl`?
Answer: AC50 [1]: 12.6 µM [rising, partial curve]; AC50 [2]: 35.5 µM [rising, single point]

Question: Which AC50 [1] does the source give for `CCCCNC(=O)C(Sc1ccccc1)c1ccccc1` (stereo unspecified) here?
Answer: Its AC50 is 11.2 µM [rising, partial curve].

Question: What about the AC50 [2] of the same compound?
Answer: The AC50 was 11.2 µM [rising, partial curve].

Question: With `CCOC(=O)c1c(C)[nH]c(C(=O)CN2C(=O)C(=O)N(CC(C)C)C2=O)c1C` as the compound, how does the AC50 [2] read?
Answer: Its AC50 is 28.2 µM [rising, partial curve].

Question: Which results are given for `CC(=O)C1=C(C)NC(SCc2ccc(C#N)cc2)=C(C#N)C1c1ccco1` (stereo unspecified)?
Answer: AC50 [1]: 20 µM [rising, partial curve, poor fit]; AC50 [2]: 1.58 µM [rising, partial curve, poor fit]

Question: For `Cc1ccc(N(C)C(=O)Cn2cc(S(=O)(=O)N3CCCC3)c(S(=O)(=O)N3CCCC3)c2)cc1`, which AC50 [2] is on record?
Answer: Its AC50 is 0.0178 µM [falling, full curve, poor fit].

Question: Which AC50 [1] does the source give for `Cc1ccc(C(=O)CSc2cnc3ccccc3n2)cc1C` here?
Answer: Its AC50 is 12.6 µM [rising, partial curve].

Question: And the AC50 [2]?
Answer: Its AC50 is 22.4 µM [rising, partial curve].

Question: Which results are given for `Cc1ccc(-c2nnc(CSc3nnc(COc4ccccc4)n3-c3ccccc3)o2)cc1`?
Answer: AC50 [1]: 11.2 µM [rising, partial curve]; AC50 [2]: 20 µM [rising, single point]

Question: With `COc1ccc(CCN2C(=O)NC(NC(=O)CCc3ccccc3)(C(F)(F)F)C2=O)cc1OC` (stereo unspecified) as the compound, how does the AC50 [2] read?
Answer: Its AC50 is 1.58 µM [rising, full curve].

Question: What does the source list for `Cc1ccc(S(=O)(=O)N(CC(=O)N2CCN(c3ccccc3F)CC2)C2CCCCC2)cc1`?
Answer: AC50 [1]: 20 µM [rising, single point]; AC50 [2]: 31.6 µM [rising, single point]

Question: Which AC50 [2] does the source give for `Cc1onc(-c2c(F)cccc2Cl)c1C(=O)OCC(=O)c1c(N)n(C)c(=O)n(C)c1=O` here?
Answer: The AC50 was 35.5 µM [rising, single point].

Question: With `COc1ccc(NS(=O)(=O)c2ccc3c(c2)CC(C)N3C(C)=O)c(OC)c1` (stereo unspecified) as the compound, how does the AC50 [2] read?
Answer: The AC50 was 0.0398 µM [falling, full curve, poor fit].

Question: With `CCOC(=O)C1=C(CN2CCN(c3cccc(OC)c3)CC2)NC(=O)NC1c1ccc(OC)cc1` (stereo unspecified) as the compound, how does the AC50 [1] read?
Answer: Its AC50 is 15.8 µM [falling, partial curve, poor fit].

Question: And the AC50 [2]?
Answer: The AC50 was 35.5 µM [falling, partial curve, poor fit].

Question: For `O=C(CN(C(=O)c1ccccc1Cl)N1C(=O)C2C3C=CC(C3)C2C1=O)c1cccs1` (stereo unspecified), which AC50 [2] is on record?
Answer: Its AC50 is 0.00355 µM [rising, full curve, poor fit].

Question: Which AC50 [2] does the source give for `CCOc1ccc(NC(=O)CSc2nc(C)cc(C)n2)cc1` here?
Answer: The AC50 was 35.5 µM [rising, single point].

Question: For `O=C(NC1CCCCC1)c1ccc(CNc2ccccc2)o1`, which AC50 [1] is on record?
Answer: The AC50 was 7.94 µM [rising, partial curve, poor fit].

Question: What about the AC50 [2] of the same compound?
Answer: Its AC50 is 7.94 µM [rising, partial curve, poor fit].

Question: For `CCCC(=NCCc1c(C)[nH]c2ccccc12)C1=C(O)CC(c2ccccc2)CC1=O` (stereo unspecified), which AC50 [2] is on record?
Answer: The AC50 was 3.98 µM [rising, partial curve, poor fit].

Question: With `O=C(C1CCN(C2CCN(Cc3ccc4cc(F)ccc4n3)CC2)CC1)N1CCCC1` as the compound, how does the AC50 [1] read?
Answer: Its AC50 is 14.1 µM [falling, single point].

Question: With `CSc1ccc(C(=O)c2[nH]c(=O)[nH]c2C)cc1` as the compound, how does the AC50 [1] read?
Answer: Its AC50 is 1.41 µM [rising, full curve, poor fit].

Question: Which AC50 [2] does the source give for `CCOC(=O)c1cc(-c2ccccc2)n(CCC(=O)Nc2ccc(C)cc2Cl)c1C` here?
Answer: The AC50 was 0.0891 µM [falling, full curve, poor fit].

Question: Which AC50 [1] does the source give for `CC1CCCCN1c1nc(-c2ccncc2)nc2ccccc12` (stereo unspecified) here?
Answer: Its AC50 is 7.94 µM [falling, partial curve].

Question: What about the AC50 [2] of the same compound?
Answer: Its AC50 is 15.8 µM [falling, partial curve].

Question: Which AC50 [2] does the source give for `CCCc1ccc(-c2csc(NC(=O)Cc3cccs3)n2)cc1` here?
Answer: The AC50 was 14.1 µM [rising, partial curve, poor fit].

Question: With `O=C(Nc1ccc(F)cc1F)c1csc(-c2ccccc2)n1` as the compound, how does the AC50 [2] read?
Answer: The AC50 was 8.91 µM [falling, partial curve, poor fit].

Question: For `O=C(c1ccccc1)N1CCOC12CCN(c1ncc(C(F)(F)F)cc1Cl)CC2`, which AC50 [2] is on record?
Answer: Its AC50 is 35.5 µM [rising, single point].

Question: Which AC50 [2] does the source give for `COc1cc(-c2n[nH]c(=S)n2-c2cc(C(F)(F)F)ccc2Cl)cc(OC)c1OC` here?
Answer: Its AC50 is 22.4 µM [rising, partial curve, poor fit].

Question: Which AC50 [1] does the source give for `Cc1cc(C)nc(NC2=NCCN2C(=S)Nc2c(C)cccc2C)n1` here?
Answer: Its AC50 is 0.0251 µM [falling, full curve, poor fit].

Question: For `Cc1ccc(Cl)cc1N(Cc1ccc(C(=O)NCc2cccnc2)cc1)S(=O)(=O)c1ccccc1`, which AC50 [1] is on record?
Answer: The AC50 was 35.5 µM [rising, single point].

Question: And the AC50 [2]?
Answer: The AC50 was 35.5 µM [rising, single point].

Question: Which AC50 [2] does the source give for `CC1CCCCC12NC(=O)N(CC(=O)Nc1sc3c(c1C(N)=O)CCC3)C2=O` (stereo unspecified) here?
Answer: Its AC50 is 4.47 µM [falling, partial curve].

Question: Which AC50 [2] does the source give for `CCOC(=O)c1oc2ccc(S(=O)(=O)Nc3ccc4c(c3)n(C)c(=O)n4C)cc2c1C` here?
Answer: Its AC50 is 12.6 µM [rising, partial curve, poor fit].

Question: Which AC50 [1] does the source give for `CCCc1ccc(-c2cc(NC(=O)CSc3n[nH]c(N)n3)n(-c3ccccc3)n2)cc1` here?
Answer: The AC50 was 10 µM [rising, partial curve].

Question: With `O=C(CSc1nc2ccccc2c(=O)[nH]1)c1cccs1` as the compound, how does the AC50 [2] read?
Answer: Its AC50 is 35.5 µM [rising, single point].

Question: With `Cc1ccc(Cl)cc1N1CCN(C(=O)c2cc(S(=O)(=O)N3CCCCCC3)cn2C)CC1` as the compound, how does the AC50 [2] read?
Answer: Its AC50 is 11.2 µM [falling, partial curve, poor fit].

Question: With `O=Nc1c(O)n(Cc2cccc(C(F)(F)F)c2)c2ccccc12` as the compound, how does the AC50 [1] read?
Answer: The AC50 was 0.794 µM [falling, full curve, poor fit].

Question: With `COC(=O)c1ccc2c(c1)N(CC(=O)Nc1cccc(C(F)(F)F)c1)C(=O)c1ccccc1S2` as the compound, how does the AC50 [2] read?
Answer: Its AC50 is 5.62 µM [rising, single point].

Question: With `CCOC(=O)CC(C#N)c1cn(C)c2ccccc12` (stereo unspecified) as the compound, how does the AC50 [1] read?
Answer: Its AC50 is 6.31 µM [falling, single point].

Question: With `O=C(NCc1ccccc1Cl)c1ccc2c(c1)SC1=NS(=O)(=O)CCN12` as the compound, how does the AC50 [1] read?
Answer: Its AC50 is 10 µM [falling, partial curve].

Question: Which AC50 [1] does the source give for `CC(=O)O[C@H]1CSC[C@H]1NC(=O)c1ccccc1` here?
Answer: Its AC50 is 4.47 µM [rising, full curve, poor fit].

Question: For `COc1ccc(NC(=O)C2CCCN(S(=O)(=O)c3ccc4c(c3)CCCN4C(C)=O)C2)cc1` (stereo unspecified), which AC50 [1] is on record?
Answer: The AC50 was 20 µM [falling, single point].

Question: Which AC50 [2] does the source give for `Cc1nc(N2CCCCC2)sc1C(=O)c1ccc(Cl)c([N+](=O)[O-])c1` here?
Answer: Its AC50 is 12.6 µM [rising, single point].
